Data as given in PubChem BioAssay AID248 (DTP/NCI, 2004).
The list shows only some results of the screen, not a fair sample: it gathers tests that were run many times, whatever their T/C, doses with no T/C, and many T/C values between a quarter and a half above the control. Other doses and runs of a compound stand elsewhere. T/C: endpoint of the treated group in % of that of the vehicle group. Some doses have a count of surviving animals in place of a T/C: the source holds a T/C of zero for them, seemingly a mark for toxic or unscored doses. Some survivor counts are full or nearly so, which does not show that the dose was tolerated: the source hardly ever lists a survival T/C far under the control, and the zero likely stands for such cases as well. Counts of survivors are from the toxicity check (mostly the fifth day) where no day follows; animals may have died later. Schedule codes are those of the source, read here as Q, the interval in days (D) or hours (H), X, the number of doses. Some entries hold several experiments; their values stand side by side, smallest first. Some schedule codes hold Z or #, which are not explained here. For survival time, this PubChem deposit counts one and a half times the control or more as active, and values a quarter to a half above the control carry no call in these data; other NCI protocols may use other cut-offs. Some T/C values are followed by the survivors on the day toxicity was checked, most often the fifth; where none is given, no animal had died by that day.

Test system: L1210 leukemia ip in BDF1 mice, survival T/C
Experiment: NCI In Vivo Anticancer Drug Screen. Data for tumor model L1210 Leukemia (intraperitoneal) in B6D2F1 (BDF1) mice
Settings: T/C endpoint: mean survival time, higher T/C = longer survival
[1] = dose: 400.0 mg/kg/injection, schedule: Q01DX009 (ip), vehicle: saline with Tween-80
[2] = dose: 400.0 mg/kg/injection, schedule: Q01DX009 (ip), vehicle: Klucel (hydroxypropylcellulose) (HPC)
[3] = dose: 400.0 mg/kg/injection, schedule: Q01DX009 (ip), vehicle: saline
[4] = dose: 200.0 mg/kg/injection, schedule: Q01DX001 (ip), vehicle: saline
[5] = dose: 400.0 mg/kg/injection, schedule: Q01DX001 (ip), vehicle: saline
[6] = dose: 400.0 mg/kg/injection, schedule: Q04DX003 (ip), vehicle: saline

Nc1ccc(Cl)cc1N
survivor count (dose: 265.0 mg/kg/injection, schedule: Q01DX009 (ip), vehicle: other): 6 of 10
survivor count (dose: 400.0 mg/kg/injection, schedule: Q01DX009 (ip), vehicle: other): 2 of 10 and 3 of 3
T/C [1]: 125 % of control [2 of 3 alive]
survivor count (dose: 600.0 mg/kg/injection, schedule: Q01DX001 (ip), vehicle: other): 2 of 10
survivor count (dose: 600.0 mg/kg/injection, schedule: Q01DX009 (ip), vehicle: other): 0 of 3
survivor count (dose: 600.0 mg/kg/injection, schedule: Q04DX003 (ip), vehicle: other): 1 of 10

O=CCSC(=S)NNc1ccccc1
survivor count [2]: 3 of 6

S=c1cc(S)c(=S)[nH][nH]1
survivor count (dose: 40.0 mg/kg/injection, schedule: Q01DX001 (ip), vehicle: other): 0 of 4
survivor count (dose: 80.0 mg/kg/injection, schedule: Q01DX001 (ip), vehicle: other): 0 of 4

CCCn1c2c(c(=O)n(CC)c1=O)SC(OCC)C(=O)N2 (stereo not given)
survivor count (dose: 262.5 mg/kg/injection, schedule: Q01DX Z (ip), vehicle: other): 6 of 6

CCOC(=O)/C(C)=N\N(C)C
survivor count [3]: 0 of 6

C/C=C\C(=O)O
survivor count [3]: 0 of 6

O=C1CCC[C@@H]2[C@H]3CCCN4CCC[C@@H](CN12)[C@@H]34
survivor count (dose: 300.0 mg/kg/injection, schedule: Q01DX001 (ip), vehicle: saline): 0 of 6

COC(=O)c1cc2ccccc2c2c1OCN(C)C2
survivor count [4]: 0 of 4
survivor count [5]: 0 of 4

COC(=O)N1C(c2ccccc2)CS1(=O)=O (stereo not given)
survivor count (dose: 200.0 mg/kg/injection, schedule: Q04DX002 (ip), vehicle: Klucel (hydroxypropylcellulose) (HPC)): 0 of 3
survivor count (dose: 400.0 mg/kg/injection, schedule: Q04DX002 (ip), vehicle: Klucel (hydroxypropylcellulose) (HPC)): 0 of 3

NCC(c1ccccc1)c1ccccc1
survivor count (dose: 75.0 mg/kg/injection, schedule: Q01DX009 (ip), vehicle: saline): 4 of 6
survivor count (dose: 100.0 mg/kg/injection, schedule: Q04DX003 (ip), vehicle: saline): 2 of 6
survivor count (dose: 115.0 mg/kg/injection, schedule: Q01DX009 (ip), vehicle: saline): 0 of 6
survivor count (dose: 170.0 mg/kg/injection, schedule: Q01DX009 (ip), vehicle: saline): 0 of 6
survivor count (dose: 200.0 mg/kg/injection, schedule: Q04DX003 (ip), vehicle: saline): 0 of 6
survivor count [6]: 0 of 6

CCSc1nc(N)c(C#N)cc1C#N
survivor count [2]: 1 of 6
survivor count (dose: 400.0 mg/kg/injection, schedule: Q04DX003 (ip), vehicle: Klucel (hydroxypropylcellulose) (HPC)): 4 of 6

O=C(CI)OCC#CCOC(=O)CI
survivor count (dose: 25.0 mg/kg/injection, schedule: Q01DX009 (ip), vehicle: carboxymethylcellulose (CMC)): 3 of 3
survivor count (dose: 25.0 mg/kg/injection, schedule: Q04DX002 (ip), vehicle: carboxymethylcellulose (CMC)): 3 of 3
survivor count (dose: 50.0 mg/kg/injection, schedule: Q01DX009 (ip), vehicle: carboxymethylcellulose (CMC)): 2 of 3 and 5 of 6
survivor count (dose: 100.0 mg/kg/injection, schedule: Q04DX002 (ip), vehicle: carboxymethylcellulose (CMC)): 2 of 3 and 6 of 6
survivor count (dose: 200.0 mg/kg/injection, schedule: Q04DX002 (ip), vehicle: carboxymethylcellulose (CMC)): 0 of 3 and 1 of 6
survivor count (dose: 400.0 mg/kg/injection, schedule: Q04DX002 (ip), vehicle: carboxymethylcellulose (CMC)): 1 of 3 and 5 of 6

NC(=O)NNC(N)=O
survivor count (dose: 200.0 mg/kg/injection, schedule: Q01DX009 (ip), vehicle: saline): 5 of 6
survivor count [6]: 3 of 6

Cc1ccc(C(C)C)c(OCCN2CC=CC2)c1
survivor count [5]: 0 of 6

Nc1nc(=S)c2ncn(C3OC(COC(=O)c4ccccc4)C(OC(=O)c4ccccc4)C3OC(=O)c3ccccc3)c2[nH]1 (stereo not given)
T/C (dose: 1.25 mg/kg/injection, schedule: Q01DX009 (ip), vehicle: saline): 136 % of control
T/C (dose: 2.5 mg/kg/injection, schedule: Q01DX009 (ip), vehicle: saline): 131 % of control
T/C (dose: 10.0 mg/kg/injection, schedule: Q01DX009 (ip), vehicle: saline): 145 % of control [5 of 6 alive]
T/C (dose: 20.0 mg/kg/injection, schedule: Q01DX009 (ip), vehicle: saline): 137 % of control
T/C (dose: 44.0 mg/kg/injection, schedule: Q01DX Z (ip), vehicle: methylcellulose (MC)): 126 % of control
T/C (dose: 67.0 mg/kg/injection, schedule: Q01DX Z (ip), vehicle: methylcellulose (MC)): 132 % of control
T/C (dose: 90.0 mg/kg/injection, schedule: Q01DX009 (ip), vehicle: saline): 137 % of control
T/C (dose: 150.0 mg/kg/injection, schedule: Q01DX Z (ip), vehicle: methylcellulose (MC)): 145 % of control
T/C (dose: 175.0 mg/kg/injection, schedule: Q01DX001 (ip), vehicle: saline): 138 % of control
survivor count (dose: 600.0 mg/kg/injection, schedule: Q01DX001 (ip), vehicle: saline): 5 of 6

COc1ccc(Cl)cc1[N+](=O)[O-]
survivor count (dose: 100.0 mg/kg/injection, schedule: Q01DX001 (ip), vehicle: Klucel (hydroxypropylcellulose) (HPC)): 6 of 6

c1ccc(-n2ncn[n+]2-c2ccccc2)cc1
survivor count (dose: 100.0 mg/kg/injection, schedule: Q01DX001 (ip), vehicle: saline): 0 of 6
survivor count [4]: 0 of 6
survivor count [5]: 0 of 6

CCCN(C(=O)c1cccc([N+](=O)[O-])c1)C(c1ccco1)P(=O)(c1ccccc1)c1ccccc1 (stereo not given)
survivor count (dose: 100.0 mg/kg/injection, schedule: Q04DX002 (ip), vehicle: saline with Tween-80): 3 of 3
survivor count (dose: 200.0 mg/kg/injection, schedule: Q01DX009 (ip), vehicle: saline with Tween-80): 3 of 3
survivor count (dose: 200.0 mg/kg/injection, schedule: Q04DX002 (ip), vehicle: saline with Tween-80): 3 of 3
survivor count [1]: 3 of 3 and 6 of 6

CC[n+]1cccc(-c2ccc(NC(=O)/C=C/c3ccc(C(=O)Nc4ccc(-c5ccc[n+](CC)c5)cc4)cc3)cc2)c1
T/C (dose: 6.25 mg/kg/injection, schedule: Q01DX Z (ip), vehicle: carboxymethylcellulose (CMC)): 148 % of control
T/C (dose: 10.0 mg/kg/injection, schedule: Q01DX001 (ip), vehicle: carboxymethylcellulose (CMC)): 129 % of control
T/C (dose: 16.0 mg/kg/injection, schedule: Q01DX001 (ip), vehicle: carboxymethylcellulose (CMC)): 142 % of control
T/C (dose: 200.0 mg/kg/injection, schedule: Q01DX001 (ip), vehicle: carboxymethylcellulose (CMC)): 142 % of control

CC(C)(C)[CH2][Sn]([Br])([Br])[CH2]C(C)(C)C
survivor count (dose: 18.75 mg/kg/injection, schedule: Q01DX001 (ip), vehicle: other): 0 of 6
survivor count (dose: 37.5 mg/kg/injection, schedule: Q01DX001 (ip), vehicle: other): 0 of 6
survivor count (dose: 75.0 mg/kg/injection, schedule: Q01DX001 (ip), vehicle: other): 0 of 6
survivor count (dose: 150.0 mg/kg/injection, schedule: Q01DX001 (ip), vehicle: other): 0 of 6
survivor count (dose: 300.0 mg/kg/injection, schedule: Q01DX001 (ip), vehicle: other): 0 of 6

Cc1ccc([N+](=O)[O-])cc1O
survivor count [4]: 5 of 6
survivor count [5]: 0 of 6

Clc1c(C(Cl)(Cl)Cl)nc2ccccc2c1Cl
survivor count (dose: 100.0 mg/kg/injection, schedule: Q01DX009 (ip), vehicle: Klucel (hydroxypropylcellulose) (HPC)): 1 of 3
survivor count (dose: 200.0 mg/kg/injection, schedule: Q01DX009 (ip), vehicle: Klucel (hydroxypropylcellulose) (HPC)): 0 of 3

Cc1cccc(C)c1NC(=O)Nc1ccc(CCO)cc1
survivor count [2]: 6 of 6

N=C(N)c1cccc(NC(=O)c2ccc(C(=O)Nc3cccc(C(=N)N)c3)cc2)c1
survivor count (dose: 120.0 mg/kg/injection, schedule: Q01DX Z (ip), vehicle: saline): 4 of 6
survivor count (dose: 125.0 mg/kg/injection, schedule: Q01DX Z (ip), vehicle: water): 0 of 6
survivor count (dose: 250.0 mg/kg/injection, schedule: Q01DX Z (ip), vehicle: water): 3 of 6
survivor count (dose: 500.0 mg/kg/injection, schedule: Q01DX Z (ip), vehicle: water): 2 of 6
